The text below walks through data of the supplement of paper PMC7666118.

By UniProt entry, the sequences of proteins in these tests, tags left out. Where a name states a change or a piece, a line headed by the entry shows the natural chain unless it says otherwise.
UniProt P78536: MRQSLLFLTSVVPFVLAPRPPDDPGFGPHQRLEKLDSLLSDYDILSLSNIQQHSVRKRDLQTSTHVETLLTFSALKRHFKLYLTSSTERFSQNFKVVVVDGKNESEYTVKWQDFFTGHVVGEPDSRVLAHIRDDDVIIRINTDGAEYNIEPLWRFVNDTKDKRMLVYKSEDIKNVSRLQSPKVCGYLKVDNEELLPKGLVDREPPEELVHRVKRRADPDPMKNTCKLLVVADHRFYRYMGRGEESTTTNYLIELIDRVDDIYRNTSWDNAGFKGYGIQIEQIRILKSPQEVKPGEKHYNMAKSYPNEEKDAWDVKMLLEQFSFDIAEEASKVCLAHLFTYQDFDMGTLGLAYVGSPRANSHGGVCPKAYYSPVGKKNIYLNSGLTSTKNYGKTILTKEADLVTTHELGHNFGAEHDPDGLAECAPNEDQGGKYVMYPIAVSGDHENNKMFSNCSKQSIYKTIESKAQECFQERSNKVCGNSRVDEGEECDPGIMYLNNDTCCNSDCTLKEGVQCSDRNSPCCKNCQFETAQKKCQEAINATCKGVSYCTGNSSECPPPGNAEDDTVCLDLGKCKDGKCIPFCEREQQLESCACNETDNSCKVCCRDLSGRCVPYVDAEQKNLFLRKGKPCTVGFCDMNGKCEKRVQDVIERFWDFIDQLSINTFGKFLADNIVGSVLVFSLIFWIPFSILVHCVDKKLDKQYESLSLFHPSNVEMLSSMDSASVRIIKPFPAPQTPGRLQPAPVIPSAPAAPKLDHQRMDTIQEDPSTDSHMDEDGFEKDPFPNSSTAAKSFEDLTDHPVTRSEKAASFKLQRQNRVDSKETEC
UniProt Q96SZ5, whole entry: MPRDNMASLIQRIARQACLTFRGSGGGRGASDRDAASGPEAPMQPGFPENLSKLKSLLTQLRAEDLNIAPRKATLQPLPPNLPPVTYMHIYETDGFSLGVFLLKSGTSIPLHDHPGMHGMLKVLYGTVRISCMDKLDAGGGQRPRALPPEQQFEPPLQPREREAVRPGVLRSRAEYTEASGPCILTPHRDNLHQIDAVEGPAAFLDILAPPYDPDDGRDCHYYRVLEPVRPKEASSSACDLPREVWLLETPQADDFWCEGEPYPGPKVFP
UniProt Q99798: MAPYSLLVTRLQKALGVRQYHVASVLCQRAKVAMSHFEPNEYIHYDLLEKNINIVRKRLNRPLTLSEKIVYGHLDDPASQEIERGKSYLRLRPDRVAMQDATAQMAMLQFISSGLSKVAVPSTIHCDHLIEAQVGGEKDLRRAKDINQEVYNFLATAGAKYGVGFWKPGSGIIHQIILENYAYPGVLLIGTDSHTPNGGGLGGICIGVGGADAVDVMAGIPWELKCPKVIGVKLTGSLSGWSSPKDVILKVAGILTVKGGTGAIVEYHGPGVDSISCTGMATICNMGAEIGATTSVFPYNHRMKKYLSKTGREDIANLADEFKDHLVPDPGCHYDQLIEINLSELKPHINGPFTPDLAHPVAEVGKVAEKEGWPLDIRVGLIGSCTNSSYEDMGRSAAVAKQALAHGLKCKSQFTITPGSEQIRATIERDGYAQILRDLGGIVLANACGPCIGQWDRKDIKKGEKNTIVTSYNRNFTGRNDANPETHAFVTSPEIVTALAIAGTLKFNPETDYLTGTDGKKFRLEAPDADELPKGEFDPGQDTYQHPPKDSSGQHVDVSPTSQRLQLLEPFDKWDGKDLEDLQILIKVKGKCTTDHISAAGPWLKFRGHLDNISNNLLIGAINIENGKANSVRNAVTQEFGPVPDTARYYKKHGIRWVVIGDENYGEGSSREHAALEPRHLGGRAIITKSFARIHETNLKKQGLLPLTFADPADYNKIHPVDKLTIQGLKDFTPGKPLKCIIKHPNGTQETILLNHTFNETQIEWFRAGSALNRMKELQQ
UniProt O14678: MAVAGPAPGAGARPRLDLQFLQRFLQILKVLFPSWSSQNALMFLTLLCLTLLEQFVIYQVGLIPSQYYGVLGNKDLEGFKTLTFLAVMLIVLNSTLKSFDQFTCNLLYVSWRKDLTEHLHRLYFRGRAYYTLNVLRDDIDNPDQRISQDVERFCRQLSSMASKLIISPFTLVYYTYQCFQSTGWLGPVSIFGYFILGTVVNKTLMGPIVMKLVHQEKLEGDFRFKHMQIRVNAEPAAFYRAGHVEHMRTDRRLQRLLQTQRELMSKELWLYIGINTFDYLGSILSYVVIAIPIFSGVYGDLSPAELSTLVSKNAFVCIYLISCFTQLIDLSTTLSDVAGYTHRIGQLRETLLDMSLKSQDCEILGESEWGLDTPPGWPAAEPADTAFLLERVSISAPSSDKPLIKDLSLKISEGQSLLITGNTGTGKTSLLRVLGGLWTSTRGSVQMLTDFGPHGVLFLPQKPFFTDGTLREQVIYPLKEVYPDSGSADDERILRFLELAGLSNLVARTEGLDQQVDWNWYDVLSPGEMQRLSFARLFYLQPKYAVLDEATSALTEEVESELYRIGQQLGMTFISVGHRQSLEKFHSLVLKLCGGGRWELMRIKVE
UniProt O60488: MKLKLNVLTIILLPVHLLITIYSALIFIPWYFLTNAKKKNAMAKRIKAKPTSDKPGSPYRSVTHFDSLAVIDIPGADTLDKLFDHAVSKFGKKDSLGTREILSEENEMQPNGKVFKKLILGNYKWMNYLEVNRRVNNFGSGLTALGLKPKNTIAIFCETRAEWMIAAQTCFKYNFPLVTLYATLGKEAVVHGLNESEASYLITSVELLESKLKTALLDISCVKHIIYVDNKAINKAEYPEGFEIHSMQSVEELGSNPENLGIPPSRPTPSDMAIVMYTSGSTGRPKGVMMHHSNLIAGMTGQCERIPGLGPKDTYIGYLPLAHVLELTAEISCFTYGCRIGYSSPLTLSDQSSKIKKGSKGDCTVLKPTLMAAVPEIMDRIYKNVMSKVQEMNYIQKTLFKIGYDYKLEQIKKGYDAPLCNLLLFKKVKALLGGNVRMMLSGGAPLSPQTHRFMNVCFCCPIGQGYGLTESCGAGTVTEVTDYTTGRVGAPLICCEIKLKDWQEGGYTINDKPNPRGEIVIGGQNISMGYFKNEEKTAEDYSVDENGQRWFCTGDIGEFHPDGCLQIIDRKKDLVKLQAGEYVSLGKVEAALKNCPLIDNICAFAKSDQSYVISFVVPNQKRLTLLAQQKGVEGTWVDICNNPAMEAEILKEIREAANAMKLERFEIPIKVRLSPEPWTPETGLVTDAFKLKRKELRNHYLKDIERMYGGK
UniProt O14672: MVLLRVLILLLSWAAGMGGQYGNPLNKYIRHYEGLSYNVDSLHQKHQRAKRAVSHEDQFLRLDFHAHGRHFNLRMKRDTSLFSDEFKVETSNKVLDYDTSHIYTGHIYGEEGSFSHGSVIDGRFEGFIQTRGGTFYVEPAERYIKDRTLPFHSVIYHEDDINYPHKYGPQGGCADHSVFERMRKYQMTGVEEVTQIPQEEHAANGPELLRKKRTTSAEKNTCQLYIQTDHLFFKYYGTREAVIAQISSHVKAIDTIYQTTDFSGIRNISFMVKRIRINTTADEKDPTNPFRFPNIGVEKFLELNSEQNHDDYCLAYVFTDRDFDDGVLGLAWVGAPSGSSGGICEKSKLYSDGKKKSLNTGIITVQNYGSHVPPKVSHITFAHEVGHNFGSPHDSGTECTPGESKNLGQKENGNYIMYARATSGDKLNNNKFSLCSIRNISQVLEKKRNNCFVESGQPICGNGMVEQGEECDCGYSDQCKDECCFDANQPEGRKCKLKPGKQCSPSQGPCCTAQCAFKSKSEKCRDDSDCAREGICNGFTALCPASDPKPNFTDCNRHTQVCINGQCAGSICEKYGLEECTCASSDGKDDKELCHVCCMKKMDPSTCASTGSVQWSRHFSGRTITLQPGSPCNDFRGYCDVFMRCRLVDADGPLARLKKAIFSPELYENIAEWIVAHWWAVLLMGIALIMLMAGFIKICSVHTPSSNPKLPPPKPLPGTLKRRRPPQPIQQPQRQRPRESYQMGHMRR
UniProt Q9BVM4: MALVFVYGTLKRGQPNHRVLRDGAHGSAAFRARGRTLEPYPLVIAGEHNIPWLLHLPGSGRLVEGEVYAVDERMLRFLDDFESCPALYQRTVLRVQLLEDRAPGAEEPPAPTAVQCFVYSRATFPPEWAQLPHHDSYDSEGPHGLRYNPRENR
UniProt Q13443: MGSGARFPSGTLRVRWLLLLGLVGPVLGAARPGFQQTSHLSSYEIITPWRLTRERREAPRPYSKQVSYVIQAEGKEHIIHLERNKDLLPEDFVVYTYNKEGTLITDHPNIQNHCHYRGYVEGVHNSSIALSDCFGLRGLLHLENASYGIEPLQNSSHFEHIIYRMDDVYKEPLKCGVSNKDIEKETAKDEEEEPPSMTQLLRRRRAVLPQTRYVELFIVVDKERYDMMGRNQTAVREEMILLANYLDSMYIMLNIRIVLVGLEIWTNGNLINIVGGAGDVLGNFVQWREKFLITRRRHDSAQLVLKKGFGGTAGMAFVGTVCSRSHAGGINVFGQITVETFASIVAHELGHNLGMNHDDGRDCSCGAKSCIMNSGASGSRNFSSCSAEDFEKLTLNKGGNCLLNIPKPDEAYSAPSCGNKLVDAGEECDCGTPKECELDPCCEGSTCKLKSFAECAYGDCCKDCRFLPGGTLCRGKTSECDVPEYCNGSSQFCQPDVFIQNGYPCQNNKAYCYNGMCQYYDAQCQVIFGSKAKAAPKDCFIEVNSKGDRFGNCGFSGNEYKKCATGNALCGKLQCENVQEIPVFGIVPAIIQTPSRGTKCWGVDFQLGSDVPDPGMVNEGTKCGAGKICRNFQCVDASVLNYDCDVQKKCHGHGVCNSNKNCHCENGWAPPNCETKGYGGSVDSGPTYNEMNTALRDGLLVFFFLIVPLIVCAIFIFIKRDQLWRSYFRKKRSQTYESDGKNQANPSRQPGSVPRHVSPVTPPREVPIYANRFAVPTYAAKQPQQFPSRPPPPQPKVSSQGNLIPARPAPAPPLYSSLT
UniProt P61163, whole entry: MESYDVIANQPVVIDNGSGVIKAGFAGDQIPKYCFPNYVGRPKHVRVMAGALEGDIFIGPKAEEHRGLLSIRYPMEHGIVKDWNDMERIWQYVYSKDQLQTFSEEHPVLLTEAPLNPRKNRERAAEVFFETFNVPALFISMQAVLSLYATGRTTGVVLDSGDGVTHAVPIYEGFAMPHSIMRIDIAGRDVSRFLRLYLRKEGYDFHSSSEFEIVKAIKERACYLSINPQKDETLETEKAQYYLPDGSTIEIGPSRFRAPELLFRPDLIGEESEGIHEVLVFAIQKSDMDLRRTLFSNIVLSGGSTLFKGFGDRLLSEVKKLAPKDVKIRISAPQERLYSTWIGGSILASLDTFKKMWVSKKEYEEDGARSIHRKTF
UniProt P36896: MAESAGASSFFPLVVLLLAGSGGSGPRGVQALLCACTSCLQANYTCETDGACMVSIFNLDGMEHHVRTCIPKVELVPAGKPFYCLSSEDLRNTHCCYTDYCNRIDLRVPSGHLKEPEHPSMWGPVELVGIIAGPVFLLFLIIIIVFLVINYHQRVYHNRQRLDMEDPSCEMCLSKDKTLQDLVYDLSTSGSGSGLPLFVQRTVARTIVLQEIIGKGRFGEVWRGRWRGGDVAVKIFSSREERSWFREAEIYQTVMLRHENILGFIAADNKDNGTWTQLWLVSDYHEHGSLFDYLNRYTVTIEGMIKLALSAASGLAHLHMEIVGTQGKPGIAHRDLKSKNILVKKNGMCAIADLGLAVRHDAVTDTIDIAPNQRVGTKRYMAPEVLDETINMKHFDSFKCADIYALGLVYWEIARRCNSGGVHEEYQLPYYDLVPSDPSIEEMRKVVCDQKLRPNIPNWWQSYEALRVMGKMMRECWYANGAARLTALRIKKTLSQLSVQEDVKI
UniProt P33121: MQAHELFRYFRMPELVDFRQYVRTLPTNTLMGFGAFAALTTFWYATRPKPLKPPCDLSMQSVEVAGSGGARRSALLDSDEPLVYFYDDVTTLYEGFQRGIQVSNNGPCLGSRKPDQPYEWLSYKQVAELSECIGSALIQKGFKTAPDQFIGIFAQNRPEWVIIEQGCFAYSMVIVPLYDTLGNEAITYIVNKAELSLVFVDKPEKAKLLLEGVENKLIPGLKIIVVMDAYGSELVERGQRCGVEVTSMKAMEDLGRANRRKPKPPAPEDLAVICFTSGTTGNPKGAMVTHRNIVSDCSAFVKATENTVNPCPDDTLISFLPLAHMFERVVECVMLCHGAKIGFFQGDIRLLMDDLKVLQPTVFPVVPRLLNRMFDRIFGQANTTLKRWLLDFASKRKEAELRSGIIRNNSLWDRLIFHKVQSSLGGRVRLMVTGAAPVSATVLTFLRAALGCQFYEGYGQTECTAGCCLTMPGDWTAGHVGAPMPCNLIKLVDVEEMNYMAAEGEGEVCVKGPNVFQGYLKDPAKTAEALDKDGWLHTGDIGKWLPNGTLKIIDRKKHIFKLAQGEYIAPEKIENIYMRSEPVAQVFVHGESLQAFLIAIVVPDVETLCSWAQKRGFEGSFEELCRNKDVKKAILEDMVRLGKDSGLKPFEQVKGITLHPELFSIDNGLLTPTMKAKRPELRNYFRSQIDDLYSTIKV

The list shows a part of the results.

Compound in this test: COc1ccc(Cn2ccc3cc(C)c(C(=O)NO)cc32)cc1
Nature of the test: dose-dependent thermal stabilisation call (2D-TPP, DLPTP, 10% FDR) (binary (1 = stabilised)); higher = stabilised by the compound. Particulars: system: HL-60 intact cells; concentration range 0.04-10 µM. As for the experimental part:
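2D thermal proteome profiling in intact HL-60 cells treated with BRD-3811 (0, 0.04, 0.29, 2, 10 uM) for 90 min at 37 C, then heated 3 min at one of 12 temperatures (42-63.9 C). Soluble protein was quantified by TMT10 MS. The value is the DLPTP call of the paper: dose-dependent thermal stabilisation over all temperatures at 10% FDR (F-test of a dose-response against a flat model); one experiment, one call per tested protein.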
Consider ACTB (UniProt P60709), for which the “dose-dependent thermal stabilisation call” value was inactive: 0. Regarding ABCC4 (UniProt O15439), the “dose-dependent thermal stabilisation call” value was inactive: 0.

Take ACP2 (UniProt P11117): the “dose-dependent thermal stabilisation call” value is inactive: 0.

In the case of ADAP1 (UniProt O75689), the “dose-dependent thermal stabilisation call” value was inactive: 0. As for ACLY (UniProt P53396), the figure is inactive: 0; as for ADAM17 (UniProt P78536), inactive: 0; as for AATF (UniProt Q9NY61), inactive: 0.

As to ACY1 (UniProt Q03154), the “dose-dependent thermal stabilisation call” value was inactive: 0. To AARS (UniProt P49588) belongs inactive: 0; to ACAD8 (UniProt Q9UKU7), inactive: 0. To ACAD11 (UniProt Q709F0) belongs inactive: 0; to ABCB7 (UniProt O75027), inactive: 0.

Regarding ACCN2 (UniProt P78348), the “dose-dependent thermal stabilisation call” value is inactive: 0. With ACSS1 (UniProt Q9NUB1), the “dose-dependent thermal stabilisation call” value was inactive: 0. As for ADO (UniProt Q96SZ5), the “dose-dependent thermal stabilisation call” value is inactive: 0. To ACAT2 (UniProt Q9BWD1) belongs inactive: 0. To ACADSB (UniProt P45954) belongs inactive: 0; to ACO2 (UniProt Q99798), inactive: 0. ABCD4 (UniProt O14678): the “dose-dependent thermal stabilisation call” value is inactive: 0. To ABHD12 (UniProt Q8N2K0) belongs inactive: 0; to ACSL4 (UniProt O60488), inactive: 0. As to ADIPOR1 (UniProt Q96A54), the “dose-dependent thermal stabilisation call” value is inactive: 0. To ACTR8 (UniProt Q9H981) belongs inactive: 0; to ACTR2 (UniProt P61160), inactive: 0; to ABCA2 (UniProt Q9BZC7), inactive: 0. Turning to ADI1 (UniProt Q9BV57), the “dose-dependent thermal stabilisation call” value is inactive: 0. As for ADD2 (UniProt P35612), the “dose-dependent thermal stabilisation call” value is inactive: 0. As for ABCF3 (UniProt Q9NUQ8), the figure is inactive: 0.

As for ACSF3 (UniProt Q4G176), the “dose-dependent thermal stabilisation call” value is inactive: 0. As for ADRBK1 (UniProt P25098), the figure is inactive: 0; as for ADK (UniProt P55263), inactive: 0; as for ACOT7 (UniProt O00154), inactive: 0.

Regarding ACP1 (UniProt P24666), the “dose-dependent thermal stabilisation call” value was inactive: 0. As for ADAM10 (UniProt O14672), the “dose-dependent thermal stabilisation call” value was inactive: 0. As for A2LD1 (UniProt Q9BVM4), the figure is inactive: 0; as for ADAM9 (UniProt Q13443), inactive: 0; as for ACTR1A (UniProt P61163), inactive: 0. ACVR1B (UniProt P36896): the “dose-dependent thermal stabilisation call” value was inactive: 0. To ACP6 (UniProt Q9NPH0) belongs inactive: 0. As for ACSL1 (UniProt P33121), the figure is inactive: 0.
